PubChem BioAssay AID434947 (Broad Institute, 2010)
The whole screen tested about 2,200 compounds, of which about 15 (0.7%) were called active.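 How the source made its calls: active means fitted half-maximal concentration for loss of luminescence signal no more than a set limit of log units above the top tested concentration; inconclusive means flat fit with 30 to 70% signal loss, or invalid fit; inactive means half-maximal concentration above that set limit.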 The list shows a part of the results.

Test: inhibitors of ADP-Glo detection reagents, dose response, artefact control for GSK3beta inhibitor project, biochemical, luminescence, cell-free, homogeneous (AID 434947);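 further: kinase-free counter screen of ADP-Glo detection reagents for GSK3beta hits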
Settings: 5 uM ADP

Compound	EC50
CCOc1ccc2c(c1)-c1c(ssc1=S)C(C)(C)N2C	inactive: > 30 µM
C=CCN(c1ccc(C(=O)Nc2ccc(C)c(C)c2)cc1)S(C)(=O)=O	inactive: > 30 µM
COc1ccc(/C=C2\Sc3ccc(C(=O)NCCCN4CCCC4)cc3N(C)C2=O)cc1OC	inactive: > 30 µM
Cc1ccc(/C=C2/Sc3ccc(C(=O)NCCN4CCOCC4)cc3NC2=O)cc1	inactive: > 30 µM
Cc1c([N+](=O)[O-])c2ccc(O)cc2n1-c1ccccc1	inactive: > 30 µM
CC(C)CNc1nc(N)c([N+](=O)[O-])c(NC2CCCCC2)n1	inactive: > 30 µM
O=Cc1cc(CCC(=O)O)ccc1O	inactive: > 30 µM
O=C1/C(=C\c2ccc(O)cc2)SC(=S)N1Cc1ccccc1	inactive: > 30 µM
CCN1CCN(c2nc(N)c([N+](=O)[O-])c(Nc3cccc(C)c3)n2)CC1	inactive: > 30 µM
N#Cc1c2n(c3c(=O)[nH]cnc13)CCCC2	inactive: > 30 µM
O=C1NC(c2ccncc2)Nc2sc3c(c21)CCCC3 (stereo not drawn)	inactive: > 30 µM
COc1ccc2nc(Cl)cc(Cl)c2c1	inactive: > 30 µM
O=[N+]([O-])c1cc(/C=N/O)ccc1Sc1ccccc1	inactive: > 30 µM
O=C(CN1CCN(Cc2ccccc2Cl)CC1)N/N=C/c1ccccn1	inactive: > 30 µM
O=C(O)C1C2C=CC(O2)C1C(=O)NCc1ccc(Cl)cc1 (stereo not drawn)	inactive: > 30 µM
CC(=O)Nc1cccc2c1C(=O)NC2=O	inactive: > 30 µM
Fc1ccccc1CNc1nc(-c2cccnc2)nc2ccccc12	inactive: > 30 µM
C(=N\Nc1ncnc2nc[nH]c12)/c1cccs1	inactive: > 30 µM
O=C(NCCCN1CCCC1=O)c1ccc2c(c1)NC(=O)c1ccccc1S2	inactive: > 30 µM
CN(CCO)c1cc(N2CCC3(CC2)OCCO3)c2nonc2c1[N+](=O)[O-]	inactive: > 30 µM
CS(=O)(=O)Nc1cccc(-c2cn3c(n2)SCC3)c1	inactive: > 30 µM
COC(=O)c1nnn(-c2nonc2N)c1CN1CCCC1	inactive: > 30 µM
CCc1ccc(S(=O)(=O)Nc2ccc(O)c3c(=O)cc(-c4ccccc4Cl)oc23)cc1	inactive: > 30 µM
COc1cccc2cc(C(C)=O)c(=O)oc12	inactive: > 30 µM

Compound	EC50
COc1ccc(C2CC(=O)N3CN(c4ccc(C)c(Cl)c4)CSC3=C2C#N)cc1 (stereo not drawn)	inactive: > 30 µM
COc1cc(SC)ccc1C(=O)OCC(=O)NCCNC(=O)COC(=O)c1ccc(SC)cc1OC	inactive: > 30 µM
CCOC(=O)c1[nH]c(C)c(C(=O)NCc2ccc(OC)cc2)c1C	inactive: > 30 µM
O=C(O)Cn1c(=O)c2c3c(sc2n(Cc2ccccc2F)c1=O)CCCC3	inactive: > 30 µM
CCOc1ccc(NC(=O)COC(=O)c2ccc3c(c2)C(=O)N(CCc2ccccc2)C3=O)cc1	inactive: > 30 µM
COc1cccc(C(=O)NNC(=O)c2ccccc2)c1	inactive: > 30 µM
COc1ccc(C2CC(=O)c3c(O)cc(O)cc3O2)c(CC=C(C)C)c1OC (stereo not drawn)	inactive: > 30 µM
Nc1nc(Nc2ccccc2)nc(NCc2ccco2)c1[N+](=O)[O-]	inactive: > 30 µM
COc1ccc(-c2nc(-c3ccccc3)[nH]c(=O)c2C#N)cc1	inactive: > 30 µM
Cc1nc(N2CCOCC2)nc(N2CCCCC2C)c1[N+](=O)[O-] (stereo not drawn)	inactive: > 30 µM
COc1cc(/C=N\NC(=O)c2cccc(Cl)c2)ccc1Oc1ccc([N+](=O)[O-])cn1	inactive: > 30 µM
COc1ccc(CCNC(=O)C(C(=O)c2ccccc2)n2cc(Cl)ccc2=O)cc1OC (stereo not drawn)	inactive: > 30 µM
CC1(C)CC(=O)C2=C(C1)Nc1ccccc1NC2c1ccc(F)cc1 (stereo not drawn)	inactive: > 30 µM
CC(C)Sc1nc2c(c(=O)[nH]1)C(c1cccs1)C1=C(CC(C)(C)CC1=O)N2 (stereo not drawn)	inactive: > 30 µM
N#Cc1c(N2CCCCC2)nc(N2CCCCC2)c2c1CCN(Cc1ccccc1)C2	inactive: > 30 µM
CC(C)CC(=O)Nc1ccccc1-c1nnn(CC(=O)N2CCc3ccccc3C2)n1	inactive: > 30 µM
COc1ccc(-c2nn(-c3ccccc3)cc2C(=O)O)cc1OC	inactive: > 30 µM
O=C1Nc2cc(C(=O)NCCCN3CCOCC3)ccc2S/C1=C/c1cccc(Cl)c1	inactive: > 30 µM
COc1cc(C2C3=C(CC(C)(C)CC3=O)Nc3c2c(=O)[nH]c(=O)n3Cc2ccccc2)ccc1O (stereo not drawn)	inactive: > 30 µM
Cc1ccc(SCC(=O)Nc2ccc3c(c2)C(=O)NC3=O)cc1	inactive: > 30 µM
CN(c1ccccc1C(=O)Nc1cccc(C(F)(F)F)c1)S(C)(=O)=O	inactive: > 30 µM
CCOc1ccccc1/C=N/NC(=O)c1nnn(-c2nonc2N)c1CN1CCCCCC1	inactive: > 30 µM
CC(=O)Nc1ccc(S(=O)(=O)c2cc(O)ccc2O)cc1	inactive: > 30 µM
CCn1nc(NC(=O)CC(C)C)c2cc3cccc(C)c3nc21	inactive: > 30 µM

As entered above:
Under EC50, O=C1NC(c2ccncc2)Nc2sc3c(c21)CCCC3 (stereo not drawn) has the entry inactive: > 30 µM
Under EC50, Fc1ccccc1CNc1nc(-c2cccnc2)nc2ccccc12 has the entry inactive: > 30 µM
Under EC50, O=[N+]([O-])c1cc(/C=N/O)ccc1Sc1ccccc1 has the entry inactive: > 30 µM
Under EC50, C=CCN(c1ccc(C(=O)Nc2ccc(C)c(C)c2)cc1)S(C)(=O)=O has the entry inactive: > 30 µM

Further results

Compound	EC50
O=[N+]([O-])c1cc(/C=N/O)ccc1SCc1ccccc1Cl	inactive: > 30 µM
O=C(CS(=O)(=O)c1ccccc1)Nc1ncc([N+](=O)[O-])s1	inactive: > 30 µM
CCN(CC)CCN1C(=O)C(=O)/C(=C(/O)c2ccc(S(=O)(=O)N3CCOCC3)cc2)C1c1ccccc1 (stereo not drawn)	inactive: > 30 µM
CN1CCc2c(sc(NC(=O)Cc3ccc(F)cc3)c2C(N)=O)C1	inactive: > 30 µM
CCn1nc(NC(=O)c2cccs2)c2cc3ccccc3nc21	inactive: > 30 µM
Cc1cccc(N=Nc2c(C)c(C#N)c(O)[nH]c2=O)c1	inactive: > 30 µM
COc1c(CC=C(C)C)cc(C2CC(=O)c3c(O)cc(O)cc3O2)cc1CC=C(C)C (stereo not drawn)	inactive: > 30 µM
CC(=O)NCC1COc2ccccc2O1 (stereo not drawn)	inactive: > 30 µM
Cc1ccc(C)c(CSc2nnc(-c3cccnc3)o2)c1	inactive: > 30 µM
CC(C)(C)NC(=O)NC(=O)CSc1nncs1	inactive: > 30 µM
N#CCCn1cc(/C=N/O)c(-c2ccc(-c3ccccc3)cc2)n1	inactive: > 30 µM
CCN(CC)C(=O)COc1cc(C)cc2oc(=O)cc(-c3ccccc3)c12	inactive: > 30 µM
CN(C(=O)CSc1nnc(-c2c[nH]c3ccccc23)o1)C1CCS(=O)(=O)C1 (stereo not drawn)	inactive: > 30 µM
COc1cccc(C(=O)Nc2nc(C)cs2)c1	inactive: > 30 µM
Cc1c(Cl)cccc1Nc1ccccc1C(=O)O	inactive: > 30 µM
COc1ccc(N2CCN(CC(O)COc3c(OC)cccc3OC)CC2)cc1 (stereo not drawn)	inactive: > 30 µM
Cc1cc(C)c(NC(=O)c2ccc(S(=O)(=O)N3CCOCC3)cc2)c(C)c1	inactive: > 30 µM
CC1CCCCN1c1ncnc(N)c1[N+](=O)[O-] (stereo not drawn)	inactive: > 30 µM
CNCCCOc1cc(C)cc(C)c1C	inactive: > 30 µM
Cc1ccccc1CSc1ccc2nnc(-c3ccccn3)n2n1	inactive: > 30 µM
O=C(CC1NCCNC1=O)Nc1cc(Cl)cc(Cl)c1 (stereo not drawn)	inactive: > 30 µM
CN1CCc2c(sc3c2c(=O)n(-c2cccc(Cl)c2)c2nncn32)C1	inactive: > 30 µM
Cc1ccc(-n2c(N)c(C(=O)NCc3cccnc3)sc2=S)cc1	inactive: > 30 µM
C=CCn1c(SCC(=O)Nc2ccc(Cl)cn2)nnc1C1CC1	inactive: > 30 µM

Compound	EC50
CC1=C(C(=O)OC(C)C)C(c2c[nH]c3ccccc23)n2ncnc2N1 (stereo not drawn)	inactive: > 30 µM
O=C(NC1CCC(C(=O)O)CC1)OCc1ccccc1 (stereo not drawn)	inactive: > 30 µM
COc1ccc(Oc2c(C)oc3c(CN(C)C)c(O)ccc3c2=O)cc1	inactive: > 30 µM
COc1ccc(C(=O)O/N=C(\C)c2ccccc2)cc1	active: 24 µM
CCCN1CCN(CCCNC(=O)c2ccc3c(c2)NC(=O)c2ccccc2S3)CC1	inactive: > 30 µM
CC1Cc2cc(S(=O)(=O)N3CCN(c4ccccc4)CC3)ccc2N1C(=O)C1CC1 (stereo not drawn)	inactive: > 30 µM
COCCN1C(=O)N[C@@H](c2cccc(C(F)(F)F)c2)[C@H](C(C)=O)[C@H]1C	inactive: > 30 µM
Fc1ccccc1Cn1c2[n+](c3ccc(C(F)(F)F)cc31)CCCCC2	inactive: > 30 µM
CC(C)Nc1nc(-c2cccnc2)nc(-c2ccccc2)c1C#N	inactive: > 30 µM
CCOc1cc(/C=N/N=C(N)N)ccc1OCc1ccc(Cl)cc1	inactive: > 30 µM
CC(C)CCSc1nnc(N)s1	inactive: > 30 µM
Cc1cccc(Nc2nc(NCc3ccco3)nc(N)c2[N+](=O)[O-])c1	inactive: > 30 µM
O=C(Nc1ncc(Cc2ccccc2Cl)s1)C1CCCO1 (stereo not drawn)	inactive: > 30 µM
Nc1nc(NCc2ccccc2)nc(Nc2ccc(F)cc2)c1[N+](=O)[O-]	inactive: > 30 µM
Nc1nc(NCC2CCCO2)nc(Nc2ccccc2)c1[N+](=O)[O-] (stereo not drawn)	inactive: > 30 µM
Cc1ccc(NC(=O)CSc2nccn2C)cc1F	inactive: > 30 µM
CC1(C)CC(=O)C2=C(C1)NC1=C(C(=O)c3ccccc31)C2c1ccc(O)cc1 (stereo not drawn)	inactive: > 30 µM
CCCn1nc(NC(=O)c2cccs2)c2cc3ccccc3nc21	inactive: > 30 µM
O=c1oc(-c2cccs2)nc2sc3c(c12)CCCCC3	inactive: > 30 µM
CCOC(=O)c1nnn(-c2nc(OC)nc(N3CCCC3)n2)c1-c1ccccc1	inactive: > 30 µM
CC1=C(C(N)=O)C(c2sccc2C)n2nnnc2N1 (stereo not drawn)	inactive: > 30 µM

Reformatted: entries from further up.
Compound | EC50
CCOc1cc(/C=N/N=C(N)N)ccc1OCc1ccc(Cl)cc1 | inactive: > 30 µM
CC(C)CCSc1nnc(N)s1 | inactive: > 30 µM
